PubChem BioAssay AID743458 – Peter MacCallum Cancer Centre – 2014

- Test: 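Retest earlier hits with independent siRNAs per gene for restoring vorinostat sensitivity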 (follow-up of hits)
- System: human HCT116-VR colon cancer cells made resistant to vorinostat
- Reagents: single siRNA or pool against human genes, 25 nM per single siRNA
- Timing: about 72 h after transfection, including 24 h of drug
- Conditions: vorinostat, 2.5 µM final, for 24 h
- Read-out: 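Cell viability by fluorescence and apoptosis by caspase 3/7 luminescence under vorinostat, background-corrected, averaged across two plate copies and given as fold change versus mock transfection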
- Direction: viability relative to mock: higher = more living cells than mock; caspase activity relative to mock: higher = more apoptosis than mock
- Hit rule: 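An siRNA counts as active if classed as reduced viability or as caspase activation, otherwise inactive; a hit class needed wells that remained healthy in the absence of drug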
Shown is one part, drawn at random, of about 1,800 reagents tested. Of all reagents, 732 (41%) got an active call. 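Calls are per siRNA reagent; a gene was deemed confirmed only if most of its four siRNAs scored.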 The numbers tell different reagents against one gene apart.

What did the screen give for RNF128 (ring finger protein 128) #1?
viability relative to mock: 0.94; caspase activity relative to mock: 1.76; viability hit class: no change; caspase hit class: no change; call: inactive

For RNF128 (ring finger protein 128) #2, what was measured?
viability relative to mock: 0.84; caspase activity relative to mock: 1.19; viability hit class: no change; caspase hit class: no change; call: inactive

For RNF128 (ring finger protein 128) #3, what does the deposit list?
viability relative to mock: 1; caspase activity relative to mock: 1.07; viability hit class: no change; caspase hit class: no change; call: inactive

For RNF128 (ring finger protein 128) #4, what does the deposit list?
viability relative to mock: 1; caspase activity relative to mock: 0.96; viability hit class: no change; caspase hit class: no change; call: inactive

Which result is listed for SAR1B (secretion associated Ras related GTPase 1B) #1?
viability relative to mock: 0.89; caspase activity relative to mock: 0.91; viability hit class: no change; caspase hit class: no change; call: inactive

What is on record for SAR1B (secretion associated Ras related GTPase 1B) #2?
viability relative to mock: 0.5; caspase activity relative to mock: 2.3; viability hit class: reduced viability; caspase hit class: no change; call: active

What is on record for SAR1B (secretion associated Ras related GTPase 1B) #3?
viability relative to mock: 0.78; caspase activity relative to mock: 1.23; viability hit class: no change; caspase hit class: no change; call: inactive

For SAR1B (secretion associated Ras related GTPase 1B) #4, how do the results read?
viability relative to mock: 0.4; caspase activity relative to mock: 2.33; viability hit class: reduced viability; caspase hit class: no change; call: active

With ACO2 (aconitase 2) #1, what was measured?
viability relative to mock: 0.91; caspase activity relative to mock: 0.94; viability hit class: no change; caspase hit class: no change; call: inactive

How did the screen score ACO2 (aconitase 2) #2?
viability relative to mock: 0.99; caspase activity relative to mock: 1.3; viability hit class: no change; caspase hit class: no change; call: inactive

For ACO2 (aconitase 2) #3, what was measured?
viability relative to mock: 0.64; caspase activity relative to mock: 1.15; viability hit class: no change; caspase hit class: no change; call: inactive

How did the screen score ACO2 (aconitase 2) #4?
viability relative to mock: 0.48; caspase activity relative to mock: 0.72; viability hit class: reduced viability; caspase hit class: no change; call: active

How did the screen score STK11 (serine/threonine kinase 11) #1?
viability relative to mock: 0.68; caspase activity relative to mock: 1.12; viability hit class: no change; caspase hit class: no change; call: inactive

For STK11 (serine/threonine kinase 11) #2, what was measured?
viability relative to mock: 0.65; caspase activity relative to mock: 2.86; viability hit class: no change; caspase hit class: caspase activation; call: active

What is on record for STK11 (serine/threonine kinase 11) #3?
viability relative to mock: 0.6; caspase activity relative to mock: 2.13; viability hit class: no change; caspase hit class: no change; call: inactive

With STK11 (serine/threonine kinase 11) #4, what was measured?
viability relative to mock: 0.9; caspase activity relative to mock: 2.13; viability hit class: no change; caspase hit class: no change; call: inactive

With SMURF2 (SMAD specific E3 ubiquitin protein ligase 2) #1, what does the deposit list?
viability relative to mock: 0.88; caspase activity relative to mock: 1.54; viability hit class: no change; caspase hit class: no change; call: inactive

Which result is listed for SMURF2 (SMAD specific E3 ubiquitin protein ligase 2) #2?
viability relative to mock: 0.9; caspase activity relative to mock: 1.69; viability hit class: no change; caspase hit class: no change; call: inactive

Which result is listed for SMURF2 (SMAD specific E3 ubiquitin protein ligase 2) #3?
viability relative to mock: 0.64; caspase activity relative to mock: 1.78; viability hit class: no change; caspase hit class: no change; call: inactive

For SMURF2 (SMAD specific E3 ubiquitin protein ligase 2) #4, what was measured?
viability relative to mock: 0.94; caspase activity relative to mock: 0.92; viability hit class: no change; caspase hit class: no change; call: inactive

What did the screen give for MARK3 (microtubule affinity regulating kinase 3) #1?
viability relative to mock: 0.76; caspase activity relative to mock: 1.2; viability hit class: no change; caspase hit class: no change; call: inactive

With MARK3 (microtubule affinity regulating kinase 3) #2, what does the deposit list?
viability relative to mock: 1.03; caspase activity relative to mock: 1.06; viability hit class: no change; caspase hit class: no change; call: inactive

Which result is listed for MARK3 (microtubule affinity regulating kinase 3) #3?
viability relative to mock: 1.06; caspase activity relative to mock: 1.21; viability hit class: no change; caspase hit class: no change; call: inactive

What did the screen give for MARK3 (microtubule affinity regulating kinase 3) #4?
viability relative to mock: 0.88; caspase activity relative to mock: 3.44; viability hit class: no change; caspase hit class: caspase activation; call: active

With SIN3A (SIN3 transcription regulator family member A) #1, what was measured?
viability relative to mock: 0.88; caspase activity relative to mock: 2.41; viability hit class: no change; caspase hit class: no change; call: inactive

For SIN3A (SIN3 transcription regulator family member A) #2, what was measured?
viability relative to mock: 1.08; caspase activity relative to mock: 1.77; viability hit class: no change; caspase hit class: no change; call: inactive

What is on record for SIN3A (SIN3 transcription regulator family member A) #3?
viability relative to mock: 0.49; caspase activity relative to mock: 5.6; viability hit class: reduced viability; caspase hit class: caspase activation; call: active

What did the screen give for SIN3A (SIN3 transcription regulator family member A) #4?
viability relative to mock: 0.74; caspase activity relative to mock: 4.88; viability hit class: no change; caspase hit class: caspase activation; call: active

Reagents above called active:
SAR1B (secretion associated Ras related GTPase 1B) #2 | viability relative to mock = 0.5; caspase activity relative to mock = 2.3; viability hit class = reduced viability; caspase hit class = no change; call = active
SAR1B (secretion associated Ras related GTPase 1B) #4 | viability relative to mock = 0.4; caspase activity relative to mock = 2.33; viability hit class = reduced viability; caspase hit class = no change; call = active
ACO2 (aconitase 2) #4 | viability relative to mock = 0.48; caspase activity relative to mock = 0.72; viability hit class = reduced viability; caspase hit class = no change; call = active
STK11 (serine/threonine kinase 11) #2 | viability relative to mock = 0.65; caspase activity relative to mock = 2.86; viability hit class = no change; caspase hit class = caspase activation; call = active
MARK3 (microtubule affinity regulating kinase 3) #4 | viability relative to mock = 0.88; caspase activity relative to mock = 3.44; viability hit class = no change; caspase hit class = caspase activation; call = active
SIN3A (SIN3 transcription regulator family member A) #3 | viability relative to mock = 0.49; caspase activity relative to mock = 5.6; viability hit class = reduced viability; caspase hit class = caspase activation; call = active
SIN3A (SIN3 transcription regulator family member A) #4 | viability relative to mock = 0.74; caspase activity relative to mock = 4.88; viability hit class = no change; caspase hit class = caspase activation; call = active
